The results in this text go back to the supplement of paper PMC8728848.

What all share (test): glycan array binding signal (z-score within array); higher = stronger binding
Common to all, as to conditions: glycan notation: IUPAC condensed, linker removed

For assay [1], the target named is GlcNAc(b1-3)[GlcNAc(b1-4)][GlcNAc(b1-6)]GlcNAc. An outline of the steps:
(§1)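 The binding signal is a Z-score computed within each array and averaged over linkers. Arrays of the same protein sequence at different concentrations or buffers were also averaged together. Data originate from 3228 arrays in the Consortium for Functional Glycomics database, kept only where the protein sequence was available.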

The target of assay [2] is GlcNAc(b1-3)[GlcNAc(b1-6)]Gal(b1-4)GlcNAc. An outline of the steps: as §1
Assay [3] has as its target GlcNAc(b1-3)[GlcNAc(b1-6)]GalNAc. An outline of the steps: as §1
Assay [4] concerns the target GlcNAc(b1-4)Gal(b1-4)GlcNAc. An outline of the steps: as §1
The next assay deals with GlcNAc(b1-4)GlcNAc. An outline of the steps:
as §1

In assay [5] the target is GlcNAc(b1-4)GlcNAc(b1-4)GlcNAc. An outline of the steps: as §1
For assay [6], the target named is GlcNAc(b1-4)GlcNAc(b1-4)GlcNAc(b1-4)GlcNAc(b1-4)GlcNAc. An outline of the steps: as §1
Assay [7] addresses GlcNAc(b1-4)GlcNAc(b1-4)GlcNAc(b1-4)GlcNAc(b1-4)GlcNAc(b1-4)GlcNAc. An outline of the steps: as §1
In assay [8] the target is GlcNAc(b1-4)[GlcNAc(b1-6)]GalNAc. An outline of the steps: as §1
Assay [9] deals with GlcNAc(b1-6)Gal(b1-4)GlcNAc. An outline of the steps:
as §1

The target of the next assay is GlcNAc(b1-6)GalNAc. An outline of the steps: as §1
Assay [10] concerns the target GlcNAc6S(b1-3)Gal(b1-4)GlcNAc. An outline of the steps: as §1
In another assay the target is Kdn(a2-3)Gal(b1-3)GalNAc. An outline of the steps:
as §1

For a further assay, the target named is Kdn(a2-3)Gal(b1-3)GlcNAc. An outline of the steps: as §1
The target in another assay is Kdn(a2-3)Gal(b1-4)Glc. An outline of the steps:
as §1

The next assay deals with Kdn(a2-3)Gal(b1-4)GlcNAc. An outline of the steps:
as §1

The target in assay [11] is Kdn(a2-3)Gal(b1-4)[Fuc(a1-3)]GlcNAc. An outline of the steps: as §1
The next assay concerns the target Kdn(a2-6)Gal(b1-4)GlcNAc. An outline of the steps:
as §1

Assay [12] addresses Man(a1-2)Man(a1-2)Man(a1-3)Man. An outline of the steps:
as §1

For assay [13], the target named is Man(a1-2)Man(a1-2)Man(a1-6)[Man(a1-3)]Man. An outline of the steps: as §1
The target in another assay is Man(a1-2)Man(a1-3)Man. An outline of the steps: as §1
Assay [14] deals with Man(a1-2)Man(a1-3)[Man(a1-2)Man(a1-6)]Man. An outline of the steps:
as §1

Assay [15] has as its target Man(a1-2)Man(a1-3)[Man(a1-2)Man(a1-6)]Man(a1-6)[Man(a1-2)Man(a1-2)Man(a1-3)]Man. An outline of the steps:
as §1

Some of the results follow.

B1: Pbx2CASH domain (Cryptococcus neoformans) (protein)
chain: GIPGPNRLYRLSGPIIFTAADQEIATYGYPTGSERAVLRVEGRNTATAIQGDCRRCARVSVKNLVVDGNRKKLGRMRDFQLATGLVVLGGNEGQSIQNSWIKNPRGFTAIHIREGDKLQCSGARVEKNEIGPVGEEYDPEKDGDDPEMSPLGRPLADGVSIACRDSFIRDNTFRDNTDAAIVVYCSPGTLIHA
In the case of B1, the “glycan array binding signal (z-score)” value was -0.155 in [1]; -0.258 in [2]; -0.565 in assay [3]; -0.297 in assay [4]; -0.629 with GlcNAc(b1-4)GlcNAc; -0.153 in assay [5]. The “glycan array binding signal (z-score)” value in assay [6] is -0.108; in [7], -0.04; in assay [8], -0.723; in [9] it was -0.858; with GlcNAc(b1-6)GalNAc, -0.438; in assay [10] it was -0.579. The “glycan array binding signal (z-score)” value with Kdn(a2-3)Gal(b1-3)GalNAc was -0.335; with Kdn(a2-3)Gal(b1-3)GlcNAc it was 1.29; with Kdn(a2-3)Gal(b1-4)Glc it was -0.029; in the assay with Kdn(a2-3)Gal(b1-4)GlcNAc it was 0.049; in [11], 0.079; with Kdn(a2-6)Gal(b1-4)GlcNAc, -0.478. The “glycan array binding signal (z-score)” value is -0.78 in [12]; -0.569 in [13]; -0.411 in the assay with Man(a1-2)Man(a1-3)Man; -0.667 in assay [14]; -0.401 in assay [15].
